At least one read-out could not be matched to a standard name with certainty.
Test: Comparative example: solubility of BMDBM in 1:1 mixture of C12-15 alkyl benzoate and other UV-filter
Settings: 1:1 mixture with C12-15 alkyl benzoate

## CCCCC(CC)COc1ccc(-c2nc(-c3ccc(OC)cc3)nc(-c3ccc(OCC(CC)CCCC)cc3O)n2)c(O)c1 (stereo not shown) [BEMT, bis-ethylhexyloxyphenol methoxyphenyl triazine]
  enhancement of solubility of BMDBM in C12-15 alkyl benzoate by UV-filter (in words): neither be enhanced

From patent publication US20140178318A1, “NOVEL COMPOUNDS” (DSM IP ASSETS B.V., priority 2009, published 2014)
